{"source": "PubChem BioAssay AID2685", "about": "(National Center for Advancing Translational Sciences (NCATS), 2010)", "note": "The whole screen tested about 320,000 compounds, of which about 2,100 (0.66%) were called active. The shares of active, inactive and inconclusive entries below differ from those in the screen. The call rests on the fitted dose curve; in most records, active means well fitted inhibition curve with a large enough effect in the signal ratio, with a control signal flat (not every such curve was filed as active); inconclusive means small, poorly fitted or top-dose-only effect, or effect the other way, or a change in a side signal; inactive means flat fitted curve, though single readings scatter; the % refers to the signal ratio. Potencies of inconclusive entries are doubtful fits and often do not repeat. Where a SMILES comes first, the peptide text is derived from it. The star is where a group is joined. Cbz = O=C(OCc1ccccc1)*"}
{"test": "qHTS Assay for Lipid Storage Modulators in Drosophila S3 Cells; further: potency means the concentration at half of the fitted maximal effect; on lipid storage change, negative = inhibition: on the % scale 0 is the no-effect control and ±100 the full control effect", "settings": "BODIPY lipid droplet fluorescence, 18-24 h, cells fed with added oleic acid; lipid storage change, negative = inhibition: at 46.1 µM (top of the series) unless noted", "outline": "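Laser-scanning cytometry quantifies lipid droplet accumulation (500–530 nm total intensity; droplet/cell object ratio) in oleic acid-fed (400 uM added) Drosophila S3 cells treated with a concentration series. 20 uM Triacsin C defined 100% inhibition.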"}
{"smiles": "Cc1ccc(C(C(=O)Nc2ccc(C(C)C)cc2)N(C)C(=O)c2ccc(=O)[nH]c2)cc1", "note": "(centres undefined)", "lipid storage change, negative = inhibition": "inconclusive: -9.12%"}
{"smiles": "CCOc1ccc(/C=C2/Sc3ccc(C(=O)N4CCOCC4)cc3N(C)C2=O)cc1OC", "Potency": "active: 20.6 µM"}
{"smiles": "COc1ccc(C(=O)Nc2cccnc2)cc1S(=O)(=O)N1CCOCC1", "lipid storage change, negative = inhibition": "inconclusive: -42.8%"}
{"smiles": "CS(=O)(=O)N(CC(=O)Nc1ccc(Br)cc1)C1CCCCC1", "Potency": "inconclusive: 1.84 µM [falling, partial curve]"}
{"smiles": "COc1ccc(N2CCN(CC(O)COc3ccc([N+](=O)[O-])cc3)CC2)cc1", "note": "(centres undefined)", "Potency": "inconclusive: 0.013 µM [activator, full curve, poor fit]"}
{"smiles": "CC1(c2nnc(-c3ccccc3)o2)CC(c2ccncc2)=NO1", "note": "(centres undefined)", "lipid storage change, negative = inhibition": "inconclusive: 10.6%"}
{"smiles": "O=C(c1cc(-c2ccco2)on1)N1CCCc2ccccc21", "Potency": "inconclusive: 14.6 µM [activator, single point]"}
{"smiles": "CN(C)C(=O)COC(=O)c1ccccc1Nc1ccc(SC(F)F)cc1", "lipid storage change, negative = inhibition": "inconclusive: -45%"}
{"smiles": "O=S(=O)(c1ccc(Br)s1)N1CCN(CCOc2ccccc2)CC1", "lipid storage change, negative = inhibition": "inconclusive: -27.8%"}
{"smiles": "CNC(=O)/C(C#N)=C/c1c(N(Cc2ccccc2)Cc2ccccc2)nc2c(C)cccn2c1=O", "Potency": "inconclusive: 29.1 µM [falling, single point]"}
{"smiles": "CCCn1c(/N=C/c2ccc3c(c2)OCO3)nc2ccccc21", "lipid storage change, negative = inhibition": "inconclusive: 14.2%"}
{"smiles": "COCC(=O)N(C)C1(c2nnnn2CCOC(=O)Nc2ccc(Cl)cc2)CCCCC1", "lipid storage change, negative = inhibition": "inconclusive: -0.552%"}
{"smiles": "COc1cccc(CCC(=O)N(C)C2CCCN(Cc3ccccc3F)C2)c1", "note": "(centres undefined)", "lipid storage change, negative = inhibition": "inconclusive: -20.1%"}
{"smiles": "CC(NC(=O)c1cc(S(=O)(=O)N(C)C)ccc1N1CCCC1)C1CC2CCC1C2", "note": "(centres undefined)", "lipid storage change, negative = inhibition": "inconclusive: -5.62%"}
{"smiles": "COc1ccc(CN2CCC(C)CC2)cc1OCc1ccccc1", "lipid storage change, negative = inhibition": "inactive"}
{"smiles": "CCOC(=O)c1cnc2c(C#N)cnn2c1N", "Potency": "inconclusive: 6.51 µM [activator, single point]"}
{"smiles": "CN(C)S(=O)(=O)c1ccc(C(=O)Nc2nnc(-c3ccco3)o2)cc1", "lipid storage change, negative = inhibition": "inconclusive: -0.62%"}
{"smiles": "CCc1cc(Cn2nc(C(=O)O)cc2-c2ccccc2)on1", "Potency": "inconclusive: 6.51 µM [activator, partial curve]"}
{"smiles": "C/C(=N\\Nc1ccccn1)c1ccc(S(=O)(=O)NCc2ccco2)cc1", "Potency": "inconclusive: 0.651 µM [falling, single point]"}
{"smiles": "O=C1Cc2ccccc2C(=O)N1c1ccc(F)cc1Cl", "Potency": "inconclusive: 25.9 µM [falling, partial curve, poor fit]"}
{"smiles": "CC(C)(C)c1ccc(S(=O)(=O)N2CCC(N3CCCCC3)CC2)cc1", "Potency": "inconclusive: 29.1 µM [activator, single point]"}
{"smiles": "O=C1OC(=O)C2C1[C@@H]1CC[C@H]2O1", "note": "(some centres undefined)", "lipid storage change, negative = inhibition": "inconclusive: -5.76%"}
{"smiles": "CCN(CC)C(=O)CSc1nc2cc(OC)c(OC)cc2c(=O)n1Cc1ccc(Cl)cc1", "lipid storage change, negative = inhibition": "inconclusive: -13%"}
{"smiles": "CCOC(=O)c1cnc(SCC)[nH]c1=O", "lipid storage change, negative = inhibition": "inconclusive: -7.33%"}
{"smiles": "NNC(=O)c1oc2ccccc2c1-n1cccc1", "lipid storage change, negative = inhibition": "inconclusive: 4.11%"}
{"smiles": "O=C1C=C(Nc2ccc(F)cc2)c2ccccc2C1=O", "Potency": "inconclusive: 29.1 µM [falling, single point]"}
{"smiles": "C=CCn1c(C)nnc1SCC(=O)Nc1nccs1", "lipid storage change, negative = inhibition": "inconclusive: 41.1%"}
{"smiles": "CC(NC(=O)c1ccccc1)C(=O)NC1CCCc2ccccc21", "note": "(centres undefined)", "lipid storage change, negative = inhibition": "inconclusive"}
{"smiles": "CCc1ccc(-c2nc(CS(=O)CC(=O)NCc3ccc4c(c3)OCO4)c(C)o2)cc1", "note": "(centres undefined)", "lipid storage change, negative = inhibition": "inconclusive: 19.2%"}
{"smiles": "CCOC(=O)Cn1c(=NC(=O)c2ccc([N+](=O)[O-])s2)sc2ccccc21", "lipid storage change, negative = inhibition": "inconclusive: 38.2% [activator]"}
{"smiles": "COC(=O)CN1C(=O)N/C(=C/c2ccc(OC)c(C)c2OC)C1=O", "lipid storage change, negative = inhibition": "inconclusive: 8.55%"}
{"smiles": "COc1ccc(-n2c(SCC(=O)Nc3ccc(NC(C)=O)cc3)nc3ccccc3c2=O)cc1", "lipid storage change, negative = inhibition": "inconclusive: -0.126%"}
{"smiles": "CC(=O)N(Cc1ccccc1)Cc1nc2sc(C)c(C)c2c(=O)[nH]1", "Potency": "inconclusive: 0.58 µM [falling, full curve]"}
{"smiles": "O=C(c1ccco1)N1CCN(CC(=O)N(C2CCCCC2)C2CCS(=O)(=O)C2)CC1", "note": "(centres undefined)", "lipid storage change, negative = inhibition": "inconclusive: -19.6%"}
{"smiles": "CC1CN(S(=O)(=O)c2cccc(C(=O)OC(C)C(=O)NC3CCCCC3C)c2)CC(C)O1", "note": "(centres undefined)", "Potency": "inconclusive: 2.59 µM [activator, partial curve]"}
{"smiles": "COC(=O)/C(=C\\C=C\\c1ccccc1)NC(=O)c1ccccc1", "lipid storage change, negative = inhibition": "inconclusive: 1.75%"}
{"smiles": "CCCCn1nnnc1NCc1cccs1", "lipid storage change, negative = inhibition": "inconclusive: 9.06%"}
{"smiles": "O=C(O)c1ccc2c(c1)C(=O)N(c1ccc(Nc3ccccc3)cc1)C2=O", "lipid storage change, negative = inhibition": "inconclusive: 10.4%"}
{"smiles": "CC(=O)Nc1ccc(/C=C2\\Sc3ccccc3C2=O)cc1", "lipid storage change, negative = inhibition": "inconclusive: 7.68%"}
{"smiles": "COC(=O)c1oc2ccccc2c1NC(=O)c1ccccc1O", "Potency": "inconclusive: 29.1 µM [falling, single point]"}
{"smiles": "Cc1ccc(C2CC(=O)c3cnc(N4CCc5ccccc5C4)nc3C2)cc1", "note": "(centres undefined)", "lipid storage change, negative = inhibition": "inconclusive: -0.599%"}
{"smiles": "CCOC(=O)c1cnn(-c2cc(C)nc3c(-c4ccccc4)cnn23)c1N", "lipid storage change, negative = inhibition": "inconclusive: 37.5%"}
{"smiles": "Cc1ccc(/C=C/C(=O)OCC(=O)NC(C)C)o1", "lipid storage change, negative = inhibition": "inconclusive: -9.66%"}
{"smiles": "O=C(Nc1ccc(N2CCOCC2)cc1)c1ccc(Br)o1", "lipid storage change, negative = inhibition": "inconclusive: 7.97%"}
{"smiles": "CC(C)C(NC(=O)C(Cc1ccccc1)NC(=O)OCc1ccccc1)C(=O)O", "note": "(stereo not drawn) (Cbz-Phe-Val-OH; configuration not given here)", "lipid storage change, negative = inhibition": "inconclusive: 23%"}
{"smiles": "COC(=O)c1ccc(COc2ccc(C(C)(C)C)cc2)o1", "Potency": "inconclusive: 13 µM [rising, partial curve, poor fit]"}
{"smiles": "Cc1ccc(C)c(NC(=O)CSc2nnc(CCCCCNC(=O)OC(C)(C)C)o2)c1", "lipid storage change, negative = inhibition": "inconclusive: 23%"}
{"smiles": "O=C(CCN1CCOCC1)N1CCCC(Nc2ccc(F)cc2)C1", "note": "(centres undefined)", "lipid storage change, negative = inhibition": "inactive"}
{"smiles": "CN(C)c1ccc(/C=N/NC(=O)c2ccc3c(c2)OCO3)cc1", "Potency": "inconclusive: 29.1 µM [rising, single point]"}
